For part of these data: Strings that start with PEPTIDE1 are HELM notation: dots part the residues, brackets hold end groups and non-standard residues.

Common to all, as to conditions: whole synthesis
Data set [1] can be described thus: general procedure: Fmoc solid-phase peptide synthesis; Fmoc-Leu-Wang resin.
The nature of data set [2]: general procedure: Fmoc solid-phase peptide synthesis; ctc resin loaded with Fmoc-D-Glu(OtBu)-OH.
Data set [3] can be described thus: general procedure: Fmoc solid-phase peptide synthesis; Fmoc-Gln(Trt)-Wang resin.

In data set [1], AQ-HSSKLQ↓L gave an isolated yield of 54%.
In data set [2], AQ-HSSKLQ↓LGGde returned an isolated yield of 4%.
With PEPTIDE1{[AQ].H.S.S.K.L.Q}$$$$V2.0, the isolated yield in data set [3] is 68%.

Source of the values: patent US20260049102 (published 2026).
